From PMC4883773 come the findings set out here.

Amino acid sequences for entries named in this document (tags omitted). Residues count along the entry.
UniProt Q05086: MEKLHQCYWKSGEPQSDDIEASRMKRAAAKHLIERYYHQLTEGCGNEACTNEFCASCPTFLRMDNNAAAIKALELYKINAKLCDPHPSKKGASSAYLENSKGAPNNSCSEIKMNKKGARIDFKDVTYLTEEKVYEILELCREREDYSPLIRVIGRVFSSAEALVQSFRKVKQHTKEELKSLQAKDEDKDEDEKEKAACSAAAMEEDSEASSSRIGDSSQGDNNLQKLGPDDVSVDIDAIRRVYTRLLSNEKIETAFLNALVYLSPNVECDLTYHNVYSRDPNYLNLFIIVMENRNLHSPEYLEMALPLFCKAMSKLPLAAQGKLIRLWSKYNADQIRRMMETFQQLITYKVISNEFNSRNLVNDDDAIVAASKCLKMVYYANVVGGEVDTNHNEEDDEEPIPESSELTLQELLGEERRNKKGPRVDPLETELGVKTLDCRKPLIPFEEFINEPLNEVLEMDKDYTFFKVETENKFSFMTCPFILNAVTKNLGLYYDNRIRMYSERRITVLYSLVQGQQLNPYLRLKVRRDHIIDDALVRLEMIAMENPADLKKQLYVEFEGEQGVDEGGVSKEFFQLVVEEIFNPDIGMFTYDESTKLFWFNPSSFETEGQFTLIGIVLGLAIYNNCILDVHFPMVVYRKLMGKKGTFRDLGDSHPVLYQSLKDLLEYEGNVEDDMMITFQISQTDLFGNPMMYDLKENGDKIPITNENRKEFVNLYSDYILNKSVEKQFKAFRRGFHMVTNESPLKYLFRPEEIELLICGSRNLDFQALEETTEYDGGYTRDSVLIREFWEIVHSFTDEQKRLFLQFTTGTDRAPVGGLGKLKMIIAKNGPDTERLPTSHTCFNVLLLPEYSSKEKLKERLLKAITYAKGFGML
UniProt P36894, residues 24-532: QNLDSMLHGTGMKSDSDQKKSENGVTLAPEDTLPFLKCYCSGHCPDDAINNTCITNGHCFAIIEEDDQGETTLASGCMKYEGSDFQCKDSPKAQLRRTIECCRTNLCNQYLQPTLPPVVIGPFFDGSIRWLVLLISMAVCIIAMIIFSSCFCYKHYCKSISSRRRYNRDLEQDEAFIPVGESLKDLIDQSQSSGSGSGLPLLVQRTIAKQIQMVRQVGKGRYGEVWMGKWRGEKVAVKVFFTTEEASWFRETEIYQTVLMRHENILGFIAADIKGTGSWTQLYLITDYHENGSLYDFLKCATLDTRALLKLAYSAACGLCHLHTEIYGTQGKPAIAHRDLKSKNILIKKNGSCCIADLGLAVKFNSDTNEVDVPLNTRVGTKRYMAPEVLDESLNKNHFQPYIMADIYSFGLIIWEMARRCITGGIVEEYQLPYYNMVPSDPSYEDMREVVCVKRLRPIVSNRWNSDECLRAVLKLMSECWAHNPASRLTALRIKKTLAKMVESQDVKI

In the test the target is HA-UBE3A (human, HEK293 cells) (human) (UniProt Q05086). Briefly: co-IP; lysates of HEK293 cells co-transfected with myc-ALK3 and HA-UBE3A; immunoprecipitated with anti-HA (control anti-IgG), blotted for HA and myc.

Results are given in words; binding and its absence hold for the method and conditions named. Binding seen in cells or lysates may run through a third protein. Some binding calls cover weakened binding; strength is not graded here.

As to “myc-ALK3 (HEK293 cells) (from UniProt P36894 24-532) (receptor)”, the binding result is “binds”.
